{"sequences": {"note": "Amino acid sequences for entries named in this document (tags omitted). A change or cut given only in a name is not applied to a line headed by its entry.", "UniProt Q61012": "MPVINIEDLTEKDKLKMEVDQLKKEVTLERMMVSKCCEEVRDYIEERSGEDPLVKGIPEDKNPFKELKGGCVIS", "UniProt Q5SYD0": "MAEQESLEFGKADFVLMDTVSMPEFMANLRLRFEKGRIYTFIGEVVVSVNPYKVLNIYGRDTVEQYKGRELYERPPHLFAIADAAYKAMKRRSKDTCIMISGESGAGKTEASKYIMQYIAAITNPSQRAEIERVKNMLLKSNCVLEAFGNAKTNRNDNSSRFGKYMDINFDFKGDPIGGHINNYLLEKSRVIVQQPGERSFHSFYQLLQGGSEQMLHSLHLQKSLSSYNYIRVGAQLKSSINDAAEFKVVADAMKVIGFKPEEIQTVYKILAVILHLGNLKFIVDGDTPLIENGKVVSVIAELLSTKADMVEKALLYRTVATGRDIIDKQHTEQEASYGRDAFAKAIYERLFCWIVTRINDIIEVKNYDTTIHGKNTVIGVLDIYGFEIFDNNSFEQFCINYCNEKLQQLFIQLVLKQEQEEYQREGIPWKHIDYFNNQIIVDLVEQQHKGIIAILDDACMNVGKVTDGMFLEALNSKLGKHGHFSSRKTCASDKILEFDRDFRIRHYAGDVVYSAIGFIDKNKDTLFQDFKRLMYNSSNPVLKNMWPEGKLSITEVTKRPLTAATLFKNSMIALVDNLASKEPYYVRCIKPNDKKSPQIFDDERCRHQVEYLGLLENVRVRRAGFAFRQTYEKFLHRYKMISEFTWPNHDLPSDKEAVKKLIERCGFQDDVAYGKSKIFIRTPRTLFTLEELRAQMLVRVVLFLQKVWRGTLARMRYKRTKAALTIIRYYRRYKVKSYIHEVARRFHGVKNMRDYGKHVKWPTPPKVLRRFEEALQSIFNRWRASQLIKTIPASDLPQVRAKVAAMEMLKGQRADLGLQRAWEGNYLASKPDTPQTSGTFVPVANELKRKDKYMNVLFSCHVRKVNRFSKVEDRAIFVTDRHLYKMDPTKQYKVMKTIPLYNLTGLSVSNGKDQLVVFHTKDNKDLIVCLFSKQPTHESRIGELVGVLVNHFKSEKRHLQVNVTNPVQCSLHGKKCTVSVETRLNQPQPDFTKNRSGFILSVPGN", "UniProt Q5NBU8": "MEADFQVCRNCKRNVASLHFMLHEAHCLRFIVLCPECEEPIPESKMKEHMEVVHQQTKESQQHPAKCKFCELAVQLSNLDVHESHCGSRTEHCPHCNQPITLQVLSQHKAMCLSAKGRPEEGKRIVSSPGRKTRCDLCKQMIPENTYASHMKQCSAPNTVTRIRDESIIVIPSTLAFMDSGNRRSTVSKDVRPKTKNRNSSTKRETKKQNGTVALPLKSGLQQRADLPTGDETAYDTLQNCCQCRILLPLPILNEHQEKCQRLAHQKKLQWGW", "UniProt Q5FWH6": "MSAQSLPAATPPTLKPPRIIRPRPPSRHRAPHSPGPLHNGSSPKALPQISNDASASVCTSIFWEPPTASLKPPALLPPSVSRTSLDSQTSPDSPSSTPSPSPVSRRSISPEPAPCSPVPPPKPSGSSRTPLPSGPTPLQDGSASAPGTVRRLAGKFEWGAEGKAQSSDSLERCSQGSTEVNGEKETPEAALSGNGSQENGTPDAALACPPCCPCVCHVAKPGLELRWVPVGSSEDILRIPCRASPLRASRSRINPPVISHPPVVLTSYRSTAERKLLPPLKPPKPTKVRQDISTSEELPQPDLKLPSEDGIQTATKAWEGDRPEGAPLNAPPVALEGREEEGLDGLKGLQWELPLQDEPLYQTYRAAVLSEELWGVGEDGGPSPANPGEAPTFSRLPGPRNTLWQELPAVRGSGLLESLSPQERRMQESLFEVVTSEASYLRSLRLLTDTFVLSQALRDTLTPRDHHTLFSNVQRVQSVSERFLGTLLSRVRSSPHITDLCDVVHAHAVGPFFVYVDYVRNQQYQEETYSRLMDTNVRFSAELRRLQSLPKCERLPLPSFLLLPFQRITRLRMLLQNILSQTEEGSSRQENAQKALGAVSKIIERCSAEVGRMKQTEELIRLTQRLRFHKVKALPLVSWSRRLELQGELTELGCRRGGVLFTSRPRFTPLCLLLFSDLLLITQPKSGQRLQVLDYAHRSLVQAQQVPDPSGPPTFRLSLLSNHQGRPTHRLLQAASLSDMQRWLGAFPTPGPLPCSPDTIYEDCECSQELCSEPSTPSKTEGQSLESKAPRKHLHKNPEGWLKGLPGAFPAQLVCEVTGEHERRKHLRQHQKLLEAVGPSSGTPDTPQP", "UniProt Q60714": "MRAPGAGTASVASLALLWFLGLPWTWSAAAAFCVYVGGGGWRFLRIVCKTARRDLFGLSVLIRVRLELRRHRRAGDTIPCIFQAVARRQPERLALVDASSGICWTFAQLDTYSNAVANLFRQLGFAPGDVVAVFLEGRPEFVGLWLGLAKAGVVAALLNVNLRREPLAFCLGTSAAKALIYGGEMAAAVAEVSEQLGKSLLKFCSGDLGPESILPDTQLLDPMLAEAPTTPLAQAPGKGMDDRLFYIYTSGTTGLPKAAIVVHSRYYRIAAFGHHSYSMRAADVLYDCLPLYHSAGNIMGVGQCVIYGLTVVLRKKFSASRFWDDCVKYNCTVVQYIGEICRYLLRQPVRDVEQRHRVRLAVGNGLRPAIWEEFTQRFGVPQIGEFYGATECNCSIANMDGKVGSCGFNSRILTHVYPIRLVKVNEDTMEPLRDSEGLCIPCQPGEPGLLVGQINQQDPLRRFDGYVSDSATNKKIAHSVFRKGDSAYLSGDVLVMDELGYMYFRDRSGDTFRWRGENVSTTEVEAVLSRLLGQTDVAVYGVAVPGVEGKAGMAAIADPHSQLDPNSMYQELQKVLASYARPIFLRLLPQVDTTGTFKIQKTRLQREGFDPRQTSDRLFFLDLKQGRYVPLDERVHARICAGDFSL", "UniProt Q61129": "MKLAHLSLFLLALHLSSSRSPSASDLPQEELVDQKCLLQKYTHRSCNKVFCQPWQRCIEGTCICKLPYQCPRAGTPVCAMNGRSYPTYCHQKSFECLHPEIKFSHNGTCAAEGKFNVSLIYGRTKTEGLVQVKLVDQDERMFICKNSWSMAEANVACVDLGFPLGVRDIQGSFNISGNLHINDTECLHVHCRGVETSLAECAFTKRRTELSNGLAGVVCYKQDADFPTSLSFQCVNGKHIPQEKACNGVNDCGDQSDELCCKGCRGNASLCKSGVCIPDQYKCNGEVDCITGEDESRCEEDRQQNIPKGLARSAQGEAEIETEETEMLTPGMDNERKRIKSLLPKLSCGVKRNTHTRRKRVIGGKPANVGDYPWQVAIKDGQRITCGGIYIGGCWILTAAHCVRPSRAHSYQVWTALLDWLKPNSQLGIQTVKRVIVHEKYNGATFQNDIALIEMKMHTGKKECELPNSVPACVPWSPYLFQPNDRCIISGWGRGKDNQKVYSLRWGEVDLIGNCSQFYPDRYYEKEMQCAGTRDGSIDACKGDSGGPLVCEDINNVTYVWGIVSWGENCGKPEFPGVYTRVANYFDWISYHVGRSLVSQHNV", "UniProt Q61171": "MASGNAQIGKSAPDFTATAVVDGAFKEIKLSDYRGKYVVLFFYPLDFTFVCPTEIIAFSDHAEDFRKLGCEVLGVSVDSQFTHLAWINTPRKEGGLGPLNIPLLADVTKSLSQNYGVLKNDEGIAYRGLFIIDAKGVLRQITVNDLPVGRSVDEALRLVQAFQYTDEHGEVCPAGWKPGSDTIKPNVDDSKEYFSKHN", "UniProt Q5U3K5": "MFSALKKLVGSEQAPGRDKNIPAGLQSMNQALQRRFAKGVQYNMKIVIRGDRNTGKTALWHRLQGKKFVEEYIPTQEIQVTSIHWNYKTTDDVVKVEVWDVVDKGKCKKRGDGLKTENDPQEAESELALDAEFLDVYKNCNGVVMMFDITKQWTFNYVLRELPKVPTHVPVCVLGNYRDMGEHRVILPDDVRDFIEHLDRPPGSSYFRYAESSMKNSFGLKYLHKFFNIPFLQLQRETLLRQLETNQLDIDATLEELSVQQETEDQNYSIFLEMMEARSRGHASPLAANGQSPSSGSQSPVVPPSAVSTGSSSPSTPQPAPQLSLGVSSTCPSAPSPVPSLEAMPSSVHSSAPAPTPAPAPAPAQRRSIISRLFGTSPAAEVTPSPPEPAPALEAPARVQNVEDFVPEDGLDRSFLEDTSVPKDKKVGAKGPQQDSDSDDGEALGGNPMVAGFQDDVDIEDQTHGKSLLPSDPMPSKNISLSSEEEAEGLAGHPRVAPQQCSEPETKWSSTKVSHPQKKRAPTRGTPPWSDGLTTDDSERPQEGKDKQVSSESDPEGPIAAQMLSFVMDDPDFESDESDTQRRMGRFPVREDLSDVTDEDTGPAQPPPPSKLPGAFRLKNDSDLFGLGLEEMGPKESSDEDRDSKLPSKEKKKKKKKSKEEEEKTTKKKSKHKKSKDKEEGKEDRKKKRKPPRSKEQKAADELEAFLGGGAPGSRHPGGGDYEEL", "UniProt Q5SSK3": "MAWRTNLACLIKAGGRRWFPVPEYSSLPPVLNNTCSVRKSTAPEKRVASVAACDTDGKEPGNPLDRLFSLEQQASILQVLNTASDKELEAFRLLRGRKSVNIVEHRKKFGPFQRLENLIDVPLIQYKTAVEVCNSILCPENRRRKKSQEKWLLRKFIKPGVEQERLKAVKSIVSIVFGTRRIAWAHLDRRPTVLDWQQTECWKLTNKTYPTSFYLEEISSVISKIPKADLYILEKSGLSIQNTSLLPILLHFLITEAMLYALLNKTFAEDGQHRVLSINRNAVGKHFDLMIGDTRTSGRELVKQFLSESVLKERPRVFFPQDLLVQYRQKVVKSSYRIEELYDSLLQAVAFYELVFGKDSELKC", "UniProt Q61009": "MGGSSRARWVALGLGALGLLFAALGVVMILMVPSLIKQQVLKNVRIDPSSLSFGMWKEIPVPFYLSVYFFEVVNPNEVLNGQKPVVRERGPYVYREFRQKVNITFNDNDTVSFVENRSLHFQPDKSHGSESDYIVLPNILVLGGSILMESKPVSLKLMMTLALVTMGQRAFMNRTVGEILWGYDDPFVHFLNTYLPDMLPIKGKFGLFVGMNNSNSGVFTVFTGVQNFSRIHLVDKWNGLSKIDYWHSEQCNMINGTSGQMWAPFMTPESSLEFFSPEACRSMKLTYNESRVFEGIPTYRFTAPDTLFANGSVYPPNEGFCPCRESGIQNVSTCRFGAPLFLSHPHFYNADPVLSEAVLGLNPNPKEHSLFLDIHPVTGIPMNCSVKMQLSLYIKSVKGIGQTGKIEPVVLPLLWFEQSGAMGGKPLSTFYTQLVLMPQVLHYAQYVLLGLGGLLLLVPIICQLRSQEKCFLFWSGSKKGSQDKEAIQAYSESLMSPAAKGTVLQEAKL", "UniProt Q60644, whole entry": "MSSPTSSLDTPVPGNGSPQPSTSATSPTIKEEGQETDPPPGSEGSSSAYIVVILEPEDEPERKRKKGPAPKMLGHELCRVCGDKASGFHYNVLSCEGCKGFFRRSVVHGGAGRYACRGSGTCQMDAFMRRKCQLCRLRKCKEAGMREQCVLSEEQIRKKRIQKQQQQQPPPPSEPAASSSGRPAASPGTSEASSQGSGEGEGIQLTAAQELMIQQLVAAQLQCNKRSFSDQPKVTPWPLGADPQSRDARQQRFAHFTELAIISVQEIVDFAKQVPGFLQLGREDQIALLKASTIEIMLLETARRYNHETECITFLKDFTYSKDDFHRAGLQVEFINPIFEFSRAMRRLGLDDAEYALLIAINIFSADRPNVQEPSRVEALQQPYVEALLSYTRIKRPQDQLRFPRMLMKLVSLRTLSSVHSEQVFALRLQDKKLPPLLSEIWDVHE"}, "source": "the supplement of paper PMC12819154", "about": "“High-throughput peptide-centric local stability assay extends protein–ligand identification to membrane proteins, tissues and bacteria” (Nature Structural & Molecular Biology, 2025)", "note": "Some of the results follow. Most entries show no effect beyond the scatter of the controls.", "data": [{"compound": "CN[C@@H]1C[C@H]2O[C@@](C)([C@@H]1OC)n1c3ccccc3c3c4c(c5c6ccccc6n2c5c31)C(=O)NC4 [staurosporine]", "test": "log2 fold change of tryptic peptide abundance, ligand vs vehicle (limited proteolysis) (log2 ratio); higher = more trypsin-susceptible (destabilized)", "settings": "ligand concentration: 20 uM; sample: mouse liver crude lysate; replicate design: treated separately", "values": [{"target": "UniProt Q61012 (peptide sequence: GIPEDKNPFK, peptide start residue: 56)", "log2 fold change": 0.0371}, {"target": "UniProt Q5SYD0 (peptide sequence: KDKYMNVLFSCHVR, peptide start residue: 851)", "log2 fold change": 0.262}, {"target": "UniProt Q5NBU8 (peptide sequence: KQNGTVALPLK, peptide start residue: 208)", "log2 fold change": 0.359}, {"target": "UniProt Q5FWH6 (peptide sequence: NTLWQELPAVR, peptide start residue: 401)", "log2 fold change": 0.317}, {"target": "UniProt Q60714 (peptide sequence: LLPQVDTTGTFK, peptide start residue: 587)", "log2 fold change": 0.298}, {"target": "UniProt Q61129 (peptide sequence: YYEKEMQCAGTR, peptide start residue: 523)", "log2 fold change": 0.377}, {"target": "UniProt Q61171 (peptide sequence: SLSQNYGVLK, peptide start residue: 110)", "log2 fold change": -0.465}, {"target": "UniProt Q5U3K5 (peptide sequence: SLLPSDPMPSK, peptide start residue: 467)", "log2 fold change": 0.184}, {"target": "UniProt Q5SSK3 (peptide sequence: SVNIVEHR, peptide start residue: 99)", "log2 fold change": -0.125}, {"target": "UniProt Q5U4C1 (peptide sequence: VWSKPKEEPNSR, peptide start residue: 269)", "log2 fold change": -0.213}, {"target": "UniProt Q61009 (peptide sequence: GTVLQEAKL, peptide start residue: 501)", "log2 fold change": -0.196}, {"target": "UniProt Q60644 (peptide sequence: MLGHELCRVCGDK, peptide start residue: 72)", "log2 fold change": -0.234}]}]}
